# Results taken from PMC9663589, “Anti-tumor effects of P-LPK-CPT, a peptide-camptothecin conjugate, in colorectal cancer” (Communications Biology, 2022).
# The chains behind the UniProt entries cited, without tags or fusion partners. Residues count along the entry.
# UniProt P54289, residues 25-1103: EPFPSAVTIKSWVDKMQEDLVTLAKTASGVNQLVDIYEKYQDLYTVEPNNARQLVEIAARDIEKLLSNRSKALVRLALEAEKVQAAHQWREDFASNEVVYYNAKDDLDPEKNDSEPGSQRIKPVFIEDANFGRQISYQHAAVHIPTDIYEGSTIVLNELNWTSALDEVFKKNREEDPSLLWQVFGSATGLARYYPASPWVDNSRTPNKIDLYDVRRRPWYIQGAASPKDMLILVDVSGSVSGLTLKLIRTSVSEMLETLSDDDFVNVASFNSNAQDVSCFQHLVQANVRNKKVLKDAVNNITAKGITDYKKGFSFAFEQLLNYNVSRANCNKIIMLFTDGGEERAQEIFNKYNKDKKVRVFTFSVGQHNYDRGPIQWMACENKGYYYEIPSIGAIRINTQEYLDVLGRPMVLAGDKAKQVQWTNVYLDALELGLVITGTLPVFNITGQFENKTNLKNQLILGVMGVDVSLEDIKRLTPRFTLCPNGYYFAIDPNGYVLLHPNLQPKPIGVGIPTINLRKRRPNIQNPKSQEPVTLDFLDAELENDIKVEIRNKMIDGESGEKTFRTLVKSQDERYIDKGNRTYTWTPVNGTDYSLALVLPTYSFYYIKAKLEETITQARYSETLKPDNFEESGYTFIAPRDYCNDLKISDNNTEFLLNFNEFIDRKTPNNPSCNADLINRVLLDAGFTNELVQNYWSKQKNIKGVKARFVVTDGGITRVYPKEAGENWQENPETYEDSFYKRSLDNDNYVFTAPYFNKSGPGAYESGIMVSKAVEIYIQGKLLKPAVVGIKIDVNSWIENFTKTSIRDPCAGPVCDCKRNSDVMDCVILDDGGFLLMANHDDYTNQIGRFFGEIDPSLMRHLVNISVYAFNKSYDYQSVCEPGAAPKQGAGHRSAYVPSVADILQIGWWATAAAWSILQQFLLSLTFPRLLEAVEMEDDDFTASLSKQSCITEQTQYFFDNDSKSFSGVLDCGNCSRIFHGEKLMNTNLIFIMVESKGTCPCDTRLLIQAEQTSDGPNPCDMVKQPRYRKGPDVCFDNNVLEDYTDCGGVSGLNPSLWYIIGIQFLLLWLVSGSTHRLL
# T1: Biotin-P-LPK
# T1 sequence (peptide, biotin (position not stated)): LPKTVSSDMSLN
# Biological target: T1, Biotin-P-LPK
# Assay: affinity purification with mass spectrometry; 50 ug/ml Biotin-P-LPK (Biotin-P-CON as control) incubated with HCT116 cells at 37 °C for 2 h, cells lysed, captured on magnetic beads; silver-stained bands cut out and identified by mass spectrometry; only the target purified
row,binding,Molecule
1,binds,CACNA2D1 (from UniProt P54289 25-1103)
2,binds,"SLC1A5 (endogenous, HCT116 cells) (receptor, UniProt Q15758 1-541) MVADPPRDSKGLAAAEPTANGGLALASIEDQGAAAGGYCGSRDQVRRCLRANLLVLLTVVAVVAGVALGLGVSGAGGALALGPERLSAFVFPGELLLRLLRMIILPLVVCSLIGGAASLDPGALGRLGAWALLFFLVTTLLASALGVGLALALQPGAASAAINASVGAAGSAENAPSKEVLDSFLDLARNIFPSNLVSAAFRSYSTTYEERNITGTRVKVPVGQEVEGMNILGLVVFAIVFGVALRKLGPEGELLIRFFNSFNEATMVLVSWIMWYAPVGIMFLVAGKIVEMEDVGLLFARLGKYILCCLLGHAIHGLLVLPLIYFLFTRKNPYRFLWGIVTPLATAFGTSSSSATLPLMMKCVEENNGVAKHISRFILPIGATVNMDGAALFQCVAAVFIAQLSQQSLDFVKIITILVTATASSVGAAGIPAGGVLTLAIILEAVNLPVDHISLILAVDWLVDRSCTVLNVEGDALGAGLLQNYVDRTESRSTEPELIQVKSELPLDPLPVPTEEGNPLLKHYRGPAGDATVASEKESVM"

# No constants are given. Whether binding was seen depends on the method and setting. In cells and extracts the contact can be indirect. These calls come from enrichment with a bait or labelling near it, and not all partners need be listed.
